According to PubChem BioAssay AID1347131 (National Center for Advancing Translational Sciences (NCATS), 2019):
Hit rate of the full screen: of about 410,000 compounds, about 2,000 (0.49%) were called active. The shares of active, inactive and inconclusive entries below differ from those in the screen. Calls come from the whole dose curve; tested in HEK293 reporter line. Where the call is inconclusive, the potency comes from a doubtful curve fit.

Assay: qHTS Assay for Foot and Mouth Disease Virus Antivirals: Primary Screen against the MLPCN compound library; note: nearly all actives have a fitted effect of over 55% in size
Details: FMDV antiviral cell-based qHTS; activity, negative = inhibition: at 57.9 µM (top of the series)
Potency is the fitted concentration of half-maximal effect.

Row | Structure (SMILES) | Potency | activity, negative = inhibition
1 | CCOc1cc(CNc2ccc3c(c2)OCCO3)cc(Br)c1OCC | inconclusive: 31.6 µM [inhibitor, partial curve, poor fit] | –
2 | CC(=O)Nc1sc2c(c1CN1CCCC1)CCCC2 | inconclusive: 12.6 µM [inhibitor, partial curve] | –
3 | O=[N+]([O-])/C=C/c1cn(Cc2ccc(Cl)cc2)c2ccccc12 | inconclusive: 35.5 µM [inhibitor, partial curve, poor fit] | –
4 | COc1cc(SC)ccc1C(=O)Nc1ncc(C)s1 | inconclusive: 10 µM [inhibitor, partial curve, poor fit] | –
5 | COc1ccccc1OC1=NS(=O)(=O)c2ccccc21 | inconclusive: 39.8 µM [inhibitor, partial curve, poor fit] | –
6 | COc1cc(CNCc2ccc(OC)c(OC)c2OC)cc(OC)c1 | inconclusive: 8.91 µM [inhibitor, partial curve, poor fit] | –
7 | Cn1c(=O)c2c(SCC(=O)N3CCCc4ccccc43)nc(CC(C)(C)C)nc2n(C)c1=O | inconclusive: 22.4 µM [inhibitor, partial curve, poor fit] | –
8 | Cc1cc(NC(=O)CSc2nc(C(C)(C)C)nc3ccccc23)no1 | – | inconclusive: -45.7% [inhibitor]
9 | COc1ccc2[nH]cc(C(=O)CCl)c2c1 | inconclusive: 28.2 µM [inhibitor, partial curve, poor fit] | –
10 | CC(=O)c1sc(NC(=O)c2cc(-c3ccccc3)nn2-c2ccccc2)nc1C | inactive | –
11 | CC1C/C(=C/c2ccncc2)C(=O)/C(=C/c2ccncc2)C1 (stereo unspecified) | inconclusive: 10 µM [inhibitor, partial curve, poor fit] | –
12 | CN(CC1COc2ccccc2O1)c1nc(-c2cccnc2)nc2ccccc12 (stereo unspecified) | inconclusive: 25.1 µM [inhibitor, partial curve, poor fit] | –
13 | COc1cc(OC)cc(C(=O)NCC(=O)OCC(=O)/C=C2/N(C)c3ccccc3C2(C)C)c1 | inconclusive: 22.4 µM [inhibitor, single point] | –
14 | O=C(Nc1ccc(Oc2ccccc2)cc1)c1csc([C@H]2C[C@H](O)[C@@H](CO)O2)n1 | inconclusive: 7.94 µM [inhibitor, partial curve, poor fit] | –
15 | C=CCNc1nc2c(c(=O)[nH]c(=O)n2C)n1CCOc1ccccc1 | inconclusive: 31.6 µM [inhibitor, partial curve, poor fit] | –
16 | CC[C@@]1(c2ccccc2OC)ON(c2ccccc2C(F)(F)F)C1=O | inconclusive: 31.6 µM [inhibitor, partial curve, poor fit] | –
17 | Cc1nnsc1C(=O)N/N=C/c1ccc2ccccc2c1O | inactive | –
18 | COc1cccc(/C=N/Nc2ncnc(N)c2[N+](=O)[O-])c1OC | active: 7.94 µM | –
19 | CCc1ccccc1NC(=O)NCc1ccc2c(c1)CCN2C(=O)c1ccccc1 | inconclusive: 22.4 µM [inhibitor, single point] | –
20 | CC1CCc2sc(C(=O)N3CCN(c4ncccn4)CC3)cc2C1 (stereo unspecified) | inactive | –
21 | Cc1ccc(Nc2nc(NCc3ccco3)c3ccccc3n2)cc1 | inconclusive: 12.6 µM [inhibitor, single point] | –

Excerpt, nos. 6 to 9
Row | Structure (SMILES) | Potency | activity, negative = inhibition
6 | COc1cc(CNCc2ccc(OC)c(OC)c2OC)cc(OC)c1 | inconclusive: 8.91 µM [inhibitor, partial curve, poor fit] | –
7 | Cn1c(=O)c2c(SCC(=O)N3CCCc4ccccc43)nc(CC(C)(C)C)nc2n(C)c1=O | inconclusive: 22.4 µM [inhibitor, partial curve, poor fit] | –
8 | Cc1cc(NC(=O)CSc2nc(C(C)(C)C)nc3ccccc23)no1 | – | inconclusive: -45.7% [inhibitor]
9 | COc1ccc2[nH]cc(C(=O)CCl)c2c1 | inconclusive: 28.2 µM [inhibitor, partial curve, poor fit] | –

Next part.

Row | Structure (SMILES) | Potency | activity, negative = inhibition
22 | Cc1nc2nc(C)n(CCN3CCOCC3)c(=O)c2c(-c2cccc([N+](=O)[O-])c2)c1C(=O)CCCCCCCCCCN1CCC(c2ccccc2)(c2ccccc2)CC1 | inconclusive: 25.1 µM [inhibitor, partial curve, poor fit] | –
23 | O=C(Nc1ccc2c(c1)OCCO2)c1ccccc1 | inconclusive: 17.8 µM [inhibitor, single point] | –
24 | COC(=O)c1ccc2c(=O)n(CCCCCC(=O)O)c(=O)[nH]c2c1 | inconclusive: 25.1 µM [inhibitor, partial curve, poor fit] | –
25 | COc1ccc(CCNC(=O)c2ccc(Cl)c(S(=O)(=O)N(C)c3ccccc3)c2)cc1 | inconclusive: 28.2 µM [inhibitor, partial curve, poor fit] | –
26 | CCCCNC1C(CC)C(CCC)C(C#N)(C#N)C1(C#N)C#N (stereo unspecified) | inconclusive: 31.6 µM [inhibitor, partial curve, poor fit] | –
27 | COc1ccccc1-c1nc(-c2ccccn2)no1 | active: 14.1 µM | –
28 | Cc1cc(NC(=O)c2ccc(N(C)S(=O)(=O)c3ccccc3)cc2)no1 | inactive | –
29 | COC(=O)c1ccccc1NC(=O)C1CCN(S(=O)(=O)c2cc(OC)ccc2OC)CC1 | inconclusive: 22.4 µM [inhibitor, single point] | –
30 | CCOC(=O)C1CCN(/C=C2/C(=O)NC(=O)N(Cc3ccco3)C2=O)CC1 | inconclusive: 12.6 µM [inhibitor, partial curve, poor fit] | –
31 | CC(=O)c1ccc(OC2(C)CCN(Cc3ccc4c(c3)OCCO4)C2)cc1 (stereo unspecified) | inconclusive: 3.16 µM [inhibitor, full curve] | –
32 | CC(=O)Oc1ccc(/C=C/c2cc(OC(C)=O)cc(OC(C)=O)c2)cc1 | inconclusive: 20 µM [inhibitor, single point] | –
33 | CCOc1cc(-c2ccc(OC(=O)c3ccc(C)cc3)c(OC)c2)cc(=O)c2c(C)oc(C)c12 | inconclusive: 25.1 µM [inhibitor, partial curve, poor fit] | –
34 | COc1ccc(NC(=O)Cn2ncc(Cl)c(Cl)c2=O)cc1S(=O)(=O)N1CCOCC1 | inconclusive: 39.8 µM [inhibitor, single point] | –
35 | CCCN(CCC)C(=O)CSc1nc2n[nH]c(C)c2c(=N)n1-c1ccc(OC)cc1 | inconclusive: 22.4 µM [inhibitor, partial curve, poor fit] | –
36 | COc1cccc(C2SCC(=O)N2c2ccc(Cl)cc2)c1OC (stereo unspecified) | inconclusive: 11.2 µM [inhibitor, single point] | –
37 | CC(C)Cn1c(N)c(C(=O)COC(=O)/C=C/c2ccccc2)c(=O)n(C)c1=O | inconclusive: 15.8 µM [inhibitor, partial curve, poor fit] | –
38 | Cc1oc(-c2ccccc2F)nc1CS(=O)(=O)CC(=O)NC1CCCC(C)C1C (stereo unspecified) | inactive | –
39 | O=C1C(=O)c2ccccc2C([O-])=C1[n+]1ccccc1 | inconclusive: 22.4 µM [inhibitor, partial curve, poor fit] | –
40 | O=C(NC1CCCCC1)C(c1ccc(F)cc1)N(C(=O)c1csnn1)C1CC1 (stereo unspecified) | inconclusive: 15.8 µM [inhibitor, single point] | –
41 | C=CC(=O)N1c2ccccc2Sc2ccc(NC(=O)OCC)cc21 | inconclusive: 12.6 µM [inhibitor, partial curve, poor fit] | –
42 | CN(NC(=O)c1ccc(Cl)cc1)c1nc(-c2ccccc2)nnc1C(F)(F)F | inconclusive: 31.6 µM [inhibitor, partial curve, poor fit] | –

Row | Structure (SMILES) | Potency | activity, negative = inhibition
43 | Clc1cccc(NCc2nnc(SCc3ccc(Cl)cc3Cl)o2)c1 | – | inconclusive: -30.8% [inhibitor]
44 | Cc1cc(O)ccc1Nc1nc(-c2cccs2)cs1 | active: 20 µM | –
45 | CC1(c2ccccc2)CC(C)(C)N(C(=O)c2ccccc2Cl)c2ccccc21 (stereo unspecified) | inconclusive: 28.2 µM [inhibitor, partial curve, poor fit] | –
46 | Cn1c(-c2ccccc2)cnc1SCC(=O)N1CCCCC1 | inconclusive: 15.8 µM [inhibitor, partial curve, poor fit] | –
47 | CCOC(=O)c1c2c(n(-c3ccc(OC)cc3)c1C)C(=O)C(=O)c1ccccc1-2 | inconclusive: 12.6 µM [inhibitor, partial curve, poor fit] | –
48 | Oc1ccc(-c2n[nH]c(C(F)(F)F)c2-c2ccccc2)c(O)c1 | inconclusive: 20 µM [inhibitor, partial curve, poor fit] | –
49 | O=C(c1cccc(-c2ccco2)c1)N1CCCC(N2CCN(c3ccc(F)cc3)CC2)C1 (stereo unspecified) | inconclusive: 35.5 µM [inhibitor, partial curve, poor fit] | –
50 | CC(=O)Nc1cccc(-c2csc(Nc3ccc(C)cn3)n2)c1 | inconclusive: 25.1 µM [inhibitor, single point] | –
51 | N#CC1c2ccccc2-n2nncc2CN1Cc1cc(Cl)cc(Cl)c1 (stereo unspecified) | inconclusive: 8.91 µM [inhibitor, full curve, poor fit] | –
52 | C=C1C(=O)O[C@@H]2C[C@@H](C)[C@@H]3C=CC(=O)[C@@]3(C)[C@@H](O)[C@H]12 | inconclusive: 8.91 µM [inhibitor, full curve, poor fit] | –
53 | CCOc1ccc(-c2csc(/C(C#N)=C\c3ccc(O)c([N+](=O)[O-])c3)n2)cc1 | inconclusive: 22.4 µM [inhibitor, partial curve, poor fit] | –
54 | Cc1nc2ccccc2c2c1CC(C(C)(Cl)Br)O2 (stereo unspecified) | inconclusive: 8.91 µM [inhibitor, partial curve, poor fit] | –
55 | COc1ccc(/C=N/NC(=S)Nc2cc(S(=O)(=O)N3CCOCC3)ccc2N2CCOCC2)cc1O | inactive | –
56 | Cc1ccnc(NC(=O)c2oc3ccccc3c2C)c1 | inconclusive: 14.1 µM [inhibitor, single point] | –
57 | Cc1ccccc1CS(=O)(=O)c1nnc([C@H](Cc2ccccc2)NC(=O)OC(C)(C)C)o1 | inconclusive: 28.2 µM [inhibitor, partial curve, poor fit] | –
58 | CCOC(=O)C(C)C(C)=O (stereo unspecified) | inconclusive: 4.47 µM [inhibitor, partial curve] | –
59 | Cc1ccc2nc(-c3ccc(NC(=O)COC(=O)c4cncc(Br)c4)cc3)sc2c1 | active: 17.8 µM | –
60 | CCCNS(=O)(=O)c1cc(Br)cc2c1N(C(=O)CC)CC2 | inactive | –
61 | Cc1cccc(CN2C(=O)/C(=C\c3ccc(C(=O)NCCN4CCOCC4)cc3)Sc3ccccc32)c1 | inconclusive: 39.8 µM [inhibitor, partial curve, poor fit] | –
